Measurements published in PubChem BioAssay AID720504 (National Center for Advancing Translational Sciences (NCATS), 2013).
In all, about 360,000 compounds went through this assay and about 10,000 (2.8%) were called active. Inconclusive results, whose numbers are uncertain, are shown with a selection of clear calls. Calls follow the shape of the dose curve; as a rule, active = well fitted inhibition curve with a large enough effect; inconclusive = small, poorly fitted or top-dose-only effect; inactive = flat fitted curve, though single readings scatter. A potency beside an inconclusive call is a rough fit, not a confirmed value.

The chains behind the UniProt entries cited, without tags or fusion partners.
UniProt P53350, whole entry, looked up: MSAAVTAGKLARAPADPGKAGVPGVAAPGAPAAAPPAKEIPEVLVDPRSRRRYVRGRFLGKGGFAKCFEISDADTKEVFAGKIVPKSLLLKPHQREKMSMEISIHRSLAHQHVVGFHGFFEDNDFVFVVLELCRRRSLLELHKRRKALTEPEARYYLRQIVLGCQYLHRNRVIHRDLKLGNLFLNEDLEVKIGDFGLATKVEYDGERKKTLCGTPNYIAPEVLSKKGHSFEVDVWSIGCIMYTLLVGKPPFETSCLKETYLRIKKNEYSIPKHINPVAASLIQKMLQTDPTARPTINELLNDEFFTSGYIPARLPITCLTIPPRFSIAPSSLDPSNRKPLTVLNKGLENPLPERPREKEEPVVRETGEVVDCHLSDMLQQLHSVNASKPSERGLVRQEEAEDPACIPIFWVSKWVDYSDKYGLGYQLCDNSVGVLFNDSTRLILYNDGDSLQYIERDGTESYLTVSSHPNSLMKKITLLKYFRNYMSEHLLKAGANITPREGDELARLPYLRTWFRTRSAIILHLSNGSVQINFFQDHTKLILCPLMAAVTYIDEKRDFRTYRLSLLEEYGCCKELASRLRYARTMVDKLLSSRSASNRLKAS

molecular target: Serine/threonine-protein kinase PLK1 (Homo sapiens) (UniProt P53350); assay: qHTS for Inhibitors of PLK1-PDB (polo-like kinase 1 - polo-box domain): Primary Screen; details: Plk1 PBD binding of FITC phosphopeptide, fluorescence polarization; also: nearly all actives have a fitted effect of over 65% in size; as to max response, negative = inhibition: series mostly up to about 57 µM
% is scaled to controls: 0 for no effect and ±100 for the full control effect; potency is read from the fitted curve at half-maximal effect.

| Compound | Potency | max response, negative = inhibition |
| --- | --- | --- |
| CCOC(=O)c1sc(NC(=O)CSc2nc(-c3ccco3)cc(C(F)(F)F)n2)c(C#N)c1C | inconclusive: 26.7 µM [inhibitor, partial curve] |  |
| O=C(O)CSc1nnc(CNc2ccc(F)cc2)n1-c1ccccc1 |  | inactive: -3.87% |
| CCOc1ccc(C(=O)N/N=C/c2ccc(-c3ccc(S(=O)(=O)Nc4ncccn4)cc3)o2)cc1 |  | inactive: -21.1% |
| O=[N+]([O-])c1c(NCCO)cc(Sc2nc3ccccc3s2)c2nonc12 | active: 1.68 µM |  |
| CCc1nc2ccc(C(=O)N3CCN(c4cccc(C)c4C)CC3)cc2nc1CC | active: 26.7 µM |  |
| Cc1cccc(C)c1NC(=O)C1(C)CSCC(=O)N1Cc1cccc(C(F)(F)F)c1 (stereo not drawn) |  | inactive: -4.44% |
| CC(C)[C@H](NC(=O)OCc1ccccc1)C(=O)NCc1ccccc1 | inconclusive: 29.9 µM [inhibitor, partial curve] |  |
| COc1cc2nc(C3CCC3)n(NC(=O)COc3ccccc3)c(=O)c2cc1OC | active: 26.7 µM |  |
| Cc1ccccc1CSc1nc2n(n1)C(c1cccs1)C1=C(CCCC1=O)N2 (stereo not drawn) | inconclusive: 29.9 µM [inhibitor, partial curve] |  |
| CCS(=O)(=O)c1ncc(Cl)c(C(=O)Nc2ccc(C)cc2)n1 | inconclusive: 29.9 µM [inhibitor, partial curve, poor fit] |  |
| COC(=O)c1c(NC(=O)C2C3C=CC(CC3)C2C(=O)O)sc(C)c1C (stereo not drawn) |  | inconclusive: -38.2% [inhibitor] |
| O=C(c1ccc(CS(=O)(=O)c2ccccc2)o1)N1CCN(c2ccccc2)CC1 | inconclusive: 29.9 µM [inhibitor, partial curve] |  |
| CC(=O)Nc1ccc(C(=O)CCl)cc1 | active: 5.32 µM |  |
| Cc1ccc(-c2cn3nc(-c4ccccc4)c(-c4ccccc4)nc3n2)cc1 | inconclusive: 13.4 µM [inhibitor, partial curve] |  |
| COc1cccc(/C=C2\Oc3cc(OCC(=O)N4Cc5ccccc5C[C@H]4C(=O)O)ccc3C2=O)c1 | inconclusive: 37.7 µM [inhibitor, single point] |  |
| CNc1nc(N(C)C)nc(N(C)C)n1 |  | inconclusive: -4.08% [inhibitor] |
| Cc1ccc(Nc2nc(C)cs2)cc1 | inconclusive: 29.9 µM [inhibitor, partial curve] |  |
| C=CCNc1sc(C(=O)C(C)(C)C)c(N)c1C#N | inconclusive: 37.7 µM [inhibitor, single point] |  |
| COc1ccc(-n2ccc(=O)c(C(=O)Nc3ccc(S(=O)(=O)Nc4nccs4)cc3)n2)cc1 | inconclusive: 33.6 µM [inhibitor, single point] |  |
| CC1(C)CC(=O)C2=C(C1)OC(N)=C(C#N)C2c1ccoc1 (stereo not drawn) |  | inactive: 4.19% |
| Clc1ccc(C2Nc3cccc4cccc(c34)N2)cc1 | inconclusive: 23.8 µM [inhibitor, partial curve] |  |
| O=c1oc2cc(O)ccc2cc1-c1nc2c(s1)CCc1ccccc1-2 | active: 3.77 µM |  |
| COc1ccc(-c2csc3nc(-c4cccnc4)nc(N4CCC(C(N)=O)CC4)c23)cc1OC | inconclusive: 29.9 µM [inhibitor, partial curve] |  |
| COc1ccc(C(=O)N2CCCC(CCC(=O)NCc3ccc(F)c(F)c3)C2)o1 (stereo not drawn) | inconclusive: 15 µM [inhibitor, partial curve] |  |
| CCN(CC)C(=O)c1sc2nc(-c3ccc(OC)cc3)cn2c1C |  | inactive: 3.73% |

By substructure, those above containing fluorine

| Compound | Potency | max response, negative = inhibition |
| --- | --- | --- |
| CCOC(=O)c1sc(NC(=O)CSc2nc(-c3ccco3)cc(C(F)(F)F)n2)c(C#N)c1C | inconclusive: 26.7 µM [inhibitor, partial curve] |  |
| O=C(O)CSc1nnc(CNc2ccc(F)cc2)n1-c1ccccc1 |  | inactive: -3.87% |
| Cc1cccc(C)c1NC(=O)C1(C)CSCC(=O)N1Cc1cccc(C(F)(F)F)c1 (stereo not drawn) |  | inactive: -4.44% |
| COc1ccc(C(=O)N2CCCC(CCC(=O)NCc3ccc(F)c(F)c3)C2)o1 (stereo not drawn) | inconclusive: 15 µM [inhibitor, partial curve] |  |

Remaining list, next part.

| Compound | Potency | max response, negative = inhibition |
| --- | --- | --- |
| CC(=O)Oc1ccc(C(=O)[C@H]2[C@H]3C(=O)N(c4ccc(C)cc4C)C(=O)[C@H]3[C@@H]3C=CC=NN32)cc1 |  | inactive: -16.5% |
| CCn1c(CCNC(=O)c2ccc(C)cc2)n[nH]c1=S |  | inactive: -5.09% |
| COC(=O)CCSCC(=O)Nc1ccc(S(=O)(=O)N2CCOCC2)cc1OC | inconclusive: 29.9 µM [inhibitor, partial curve] |  |
| CSCCC1NC(=O)N(CC(=O)Nc2c(Cl)cc(Cl)cc2Cl)C1=O (stereo not drawn) | active: 8.44 µM |  |
| Cc1ccc(S(=O)(=O)Oc2ccccc2/C=N/N=C(N)N)cc1 |  | inactive: -0.502% |
| COc1ccc(-c2noc(CCC(=O)Nc3ccc4c(c3)OCCO4)n2)cc1 |  | inactive: -3.52% |
| O=C(COC(=O)c1ccco1)NCC1CCCO1 (stereo not drawn) | inconclusive: 37.7 µM [inhibitor, single point] |  |
| CCOP(=O)(OCC)C(NC(=O)/C=C/c1ccc(OC)cc1)c1ccccc1 (stereo not drawn) |  | inactive: -2.09% |
| Cc1ccc(/C=N/n2c(-c3ccco3)n[nH]c2=S)cc1 | inconclusive: 23.8 µM [inhibitor, partial curve] |  |
| COc1ccc(C(=O)N=c2nc3ccccn3s2)cc1 | inconclusive: 26.7 µM [inhibitor, single point] |  |
| Cc1cccc(C)c1NS(=O)(=O)c1ccc(F)cc1 | inconclusive: 23.8 µM [inhibitor, single point] |  |
| CCCNc1[nH]c(=O)n(C)c(=O)c1N=O |  | inactive: -1.4% |
| CCOC(=O)C1CCN(Cc2cc(=O)oc3cc(C)ccc23)CC1 |  | inactive: -2.96% |
| CCC(=O)Nc1sc2c(c1C#N)CC(C)(CC)OC2 (stereo not drawn) | inconclusive: 23.8 µM [inhibitor, partial curve] |  |
| O=C(NNC(=S)NCc1ccccc1)c1cccc([N+](=O)[O-])c1 |  | inactive: -16.9% |
| O=C(NC1CCCCC1)C(c1ccccn1)N(C(=O)c1csnn1)C1CC1 (stereo not drawn) | inconclusive: 29.9 µM [inhibitor, partial curve] |  |
| CCC(C)C(=O)Nc1nc2ccc(S(C)(=O)=O)cc2s1 (stereo not drawn) | inconclusive: 26.7 µM [inhibitor, partial curve] |  |
| Fc1ccc(C2c3cccn3CCN2C(=S)Nc2cccc(Br)c2)cc1 (stereo not drawn) |  | inactive: -6.63% |
| Cc1cccc(N2CCN(C(=O)Cc3c(C(=O)O)[nH]c4ccc(Cl)cc34)CC2)c1C | inconclusive: 26.7 µM [inhibitor, single point] |  |
| Cn1c(=O)c2c(ncn2CC(=O)N2CCN(C(=O)c3ccco3)CC2)n(C)c1=O |  | inactive: -2.57% |
| CN(C)Cc1c(O)ccc2ccccc12 | inconclusive: 29.9 µM [inhibitor, single point] |  |
| S=c1[nH]nc(COc2ccccc2)n1/N=C/C=C/c1ccccc1 |  | inactive: -14.4% |
| CCCOC(=O)C1=C(C)NC(=O)NC1c1ccc(Br)s1 (stereo not drawn) | active: 23.8 µM |  |
| COc1ccc(CC(=O)OCC(=O)NC(=O)NC(C)C)cc1 |  | inactive: -0.795% |
| O=C(Nc1cccc2cccnc12)c1ccc2sc([C@@H]3O[C@H](CO)[C@H](O)[C@H](O)[C@H]3O)nc2c1 |  | inactive: 2.47% |

| Compound | Potency | max response, negative = inhibition |
| --- | --- | --- |
| CC(Sc1ccc(S(=O)(=O)N2CCOCC2)cn1)c1ccccc1Cl (stereo not drawn) | inconclusive: 10.6 µM [inhibitor, partial curve] |  |
| CC1=CC(c2ccc(Cl)cc2)n2nc(NS(=O)(=O)c3ccc(C)cc3)nc2N1 (stereo not drawn) | inconclusive: 21.2 µM [inhibitor, partial curve] |  |
| CCCN(CCC)S(=O)(=O)c1ccc(NC(=O)Cc2cccs2)cc1 |  | inactive: -9.92% |
| Cc1cccc(-n2c(C)nc3cc(C(=O)NCC4CCCO4)ccc32)c1 (stereo not drawn) | inconclusive: 29.9 µM [inhibitor, partial curve] |  |
| CN1/C(=C/C=C/c2n(C)c3cc([N+](=O)[O-])c([N+](=O)[O-])cc3[n+]2C)C(C)(C)c2ccccc21 |  | inactive: 3.96% |
| COc1cc(/C=N/n2c(-c3n[nH]c4c3CCC4)n[nH]c2=S)ccc1O | inconclusive: 29.9 µM [inhibitor, single point] |  |
| Cc1cc(=O)n2cccc(O)c2n1 |  | inconclusive: -31.6% [inhibitor] |
| Cc1cc2cc(C(c3nnnn3Cc3ccco3)N3CCc4ccccc43)c(=O)[nH]c2cc1C (stereo not drawn) |  | inactive: -20.7% |
| CNC(=O)/C(C#N)=C/c1cccc(Oc2ccccc2)c1 | inconclusive: 33.6 µM [inhibitor, single point] |  |
| CCCc1nnc(SCC(=O)N2CCCC(C)C2)n1CC1CCCO1 (stereo not drawn) | inconclusive: 37.7 µM [inhibitor, single point] |  |
| COc1ccc(CNc2ccc3c(c2)nc(C)n3C)cc1 |  | inactive: -7.85% |
| COc1c2ccoc2nc2c(OC)c(O)ccc12 |  | inactive: 4.2% |
| CSc1nnc(NC(=O)c2nc(S(=O)(=O)Cc3ccccc3F)ncc2Cl)s1 | inconclusive: 33.6 µM [inhibitor, single point] |  |
| O=S(=O)(CCc1nc2ccccc2s1)c1ccc2ccccc2c1 | inconclusive: 33.6 µM [inhibitor, partial curve] |  |
| Cc1ccc(S(=O)(=O)/N=C(/NC(=S)Nc2ccccc2)c2ccccc2)cc1 | inconclusive: 21.2 µM [inhibitor, partial curve] |  |
| CC(=O)c1ccc(N2CCN(C(=O)CCCc3nc4ccccc4s3)CC2)cc1 |  | inactive: -4.86% |
| OCC1CCCN(C(=S)Nc2ccc(Oc3ccccc3)cc2)C1 (stereo not drawn) | inconclusive: 26.7 µM [inhibitor, partial curve] |  |
| CN(C)CCCSc1nc2ccccc2s1 | inconclusive: 26.7 µM [inhibitor, partial curve] |  |
| Cc1sc2ncnc(Nc3ccccc3)c2c1C | active: 26.7 µM |  |
| Cc1c(N=C/C=C2\N(C)c3ccccc3C2(C)C)c(=O)n(-c2ccccc2)n1C |  | inactive: -3.31% |
| Cc1ccc(N2NC(C)(c3cccs3)NC2=S)cc1 (stereo not drawn) | inconclusive: 15 µM [inhibitor, partial curve] |  |
| O=C(Nc1ccc(C(F)(F)F)cc1)c1cccnc1N1CCOCC1 | inconclusive: 23.8 µM [inhibitor, single point] |  |
| O=C(CSc1nncc2ccccc12)Nc1ccc(C(=O)O)cc1 |  | inactive: -28.5% |
